Out of some 59,000 compounds screened, about 35 (0.06%) were called active. Inconclusive means that the source gave no clear call. Such entries were picked first, then a sample of the others. Cut-off read from the data, not from the text of the source: active = max dye-equivalent concentration above about 10 nM; inconclusive = between about 1.1 nM and that limit; inactive = weaker than that.
experiment: qHTS Assay for Spectroscopic Profiling in Texas Red Spectral Region; settings: Compound fluorescence, Texas Red channel, 547/618 nm; stronger effect = higher value
How it was run: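 Compound fluorescence was read after 15 min at room temperature in 100 mM Tris, pH 8.0, using 547 nm excitation and 618 nm emission across a concentration series. It was expressed as Texas Red dye-equivalent concentration from an on-plate standard curve.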

Row | Compound | max dye-equivalent concentration
1 | Cc1cccc(-n2c(O)c(C=Nc3ccc4c(c3)OCO4)c3ccccc3c2=O)n1 | inactive
2 | Nc1nnc2c(n1)CCCC2 | inconclusive: 1.4 nM
3 | Cc1ccc(C2C(C#N)=C(N)SC(N)=C2C#N)c(C)c1 | inactive
4 | COc1cccc(S(=O)(=O)N2CCN(c3ccccc3F)CC2)c1 | inconclusive: 1.2 nM
5 | COc1ccc(Cl)cc1NC(=O)CSc1nnc(COc2ccccc2)n1N | inconclusive: 1.4 nM
6 | COc1ccc(C(=O)CSc2nnc(CNc3ccc(C)cc3C)o2)cc1 | inconclusive: 2.3 nM
7 | CCOC(=O)CSc1nc2c(sc(=S)n2CCc2ccccc2)c(=O)n1Cc1ccco1 | inconclusive: 1.3 nM
8 | CN(Cc1nc2ccccc2n1C)S(C)(=O)=O | inconclusive: 2 nM
9 | CCOC(=O)CC1C(=O)NCCN1C(=O)COc1ccc(Br)cc1C (centres undefined) | inconclusive: 1.7 nM
10 | O=C(Nc1cccc(-c2nnc(-c3ccccc3)o2)c1)C1CCCCC1 | inconclusive: 1.2 nM
11 | CCn1c2ccccc2c2cc(C3C(C#N)=C(C)NC(C)=C3C#N)ccc21 | inconclusive: 1.5 nM
12 | CC(=O)Nc1nc2ccccc2n1CCOc1ccccc1Cl | inconclusive: 1.6 nM
13 | CCn1c(CSc2nnc(-c3cccnc3)n2-c2ccccc2C)nc2cc(C(=O)O)ccc21 | active: 420 nM
14 | CC(C)=CCC/C(C)=C/CN(CC(C)O)CC(C)O (centres undefined) | inconclusive: 1.4 nM
15 | Cc1cc(NC(=O)CCCC(=O)NCc2cccs2)no1 | inconclusive: 1.1 nM
16 | O=C(CN1C(=O)CSc2ccccc21)Nc1ccccc1C(=O)N1CCOCC1 | inconclusive: 1.1 nM
17 | CCOC(=O)C1CCN(C2CC(=O)N(c3ccc(OCC)cc3)C2=O)CC1 (centres undefined) | inconclusive: 1.2 nM
18 | Cc1ccc(S(=O)(=O)N2CCCCC2C(=O)NCc2ccco2)cc1 (centres undefined) | inconclusive: 1.3 nM
19 | O=C(NCc1ccc2c(c1)OCO2)C1CCN(Cc2cnn(-c3ccccc3)c2-n2cccc2)CC1 | inconclusive: 1.8 nM
20 | CN(C)c1ncc2nc(-c3ccc(F)cc3)c(=O)n(Cc3ccc(F)cc3)c2n1 | inactive
21 | CCn1nc(C(=O)OCC(=O)c2ccc3c(c2)OCCO3)c2ccccc2c1=O | inconclusive: 1.2 nM
22 | Cc1ncc(CC(=O)n2cc(C(=O)c3cc(Cl)ccc3O)cn2)s1 | inconclusive: 2.2 nM
23 | Clc1ccc(Cn2nnc(-c3ccc(CN4CCOCC4)cc3)n2)cc1 | inconclusive: 1.4 nM
24 | CC(C)NC(=O)N1CCOCCOCCN(C(=O)NC(C)C)CCOCCOCC1 | inconclusive: 1.1 nM

Looked up one by one from the entries so far, two records:
Row | Compound | max dye-equivalent concentration
21 | CCn1nc(C(=O)OCC(=O)c2ccc3c(c2)OCCO3)c2ccccc2c1=O | inconclusive: 1.2 nM
13 | CCn1c(CSc2nnc(-c3cccnc3)n2-c2ccccc2C)nc2cc(C(=O)O)ccc21 | active: 420 nM

— PubChem BioAssay AID587 (National Center for Advancing Translational Sciences (NCATS), 2007)
